Our source for the binding values is publication PMC11569188.

Results are given in words; binding and its absence hold for the method and conditions named. Some entries that bind do so weakly or less than the wild type.

The test has as its target Grb2 SH2 domain (BAP-tagged), P62993. Kind of test: fluorescence polarisation; competition: Affimer diluted twofold from 20 µM over 12 wells, 20 nM FYp, 0.25 µM Grb2 SH2; 50 mM Tris, 100 mM NaCl, pH 7.4; 24 °C; both purified. Particulars: remark: other sources report otherwise.

B1: fluorescein isothiocyanate-labelled phosphopeptide FYp (FITC-GABA-S-pY-V-N-V-Q) (peptide)
peptide: SYVNVQ
modifications: here or on the partner: FITC-GABA on the N-terminus; phosphotyrosine (pY) at position 2; biotin on the BAP tag (in vivo biotinylation)
Regarding B1, the binding entry is “binds”.
